Results: article PMC8359084, “WRAP-based nanoparticles for siRNA delivery: a SAR study and a comparison with lipid-based transfection reagents” (Journal of Nanobiotechnology, 2021)

Assay: Circular dichroism (CD) of peptides in the presence of siRNA
Type: physicochemical
Details: peptide:siRNA complexes R = 20, CPP 10 µM, siRNA 0.5 µM

Sequence	Helix (CD), helix signal in CD measurements
RLLRLLRWWWRLLRLLR [W5-6R, R analogue of W5]	YES
RLLRLLWWWLLRLLR [W5-4R, R analogue of W5]	YES
LLRLLRWWWRLLRLL [W5]	YES
RLLWRLWLWRLLR [W1-4R, R analogue of W1]	YES
LWRLWRLLWRLWRLL [W1-2L, Δ L analogue of W1]	YES
RLLWRLWRLLWRLWRLLR [W1-6R, R analogue of W1]	YES
LLWRLWRLWRLWRLL [W1-Lm, Δ L analogue of W1]	YES
LLWRLWRLLWRLWRLL [W1]	YES
LLRLWWRLLRWWLRLL [W1-Mix, W-mix analogue of W1]	YES
